From publication PMC4324908
Results are given in words; binding and its absence hold for the method and conditions named. Binding seen in cells or lysates may run through a third protein. Some results given as binding are weak or reduced against the parent protein; the word gives no strength. Sequences can lack the tags named with a protein.

Molecular target: T1, GFP-fused rat Hap1B (pEGFP-rHap1B) (rat) (UniProt P54256)
T1 sequence: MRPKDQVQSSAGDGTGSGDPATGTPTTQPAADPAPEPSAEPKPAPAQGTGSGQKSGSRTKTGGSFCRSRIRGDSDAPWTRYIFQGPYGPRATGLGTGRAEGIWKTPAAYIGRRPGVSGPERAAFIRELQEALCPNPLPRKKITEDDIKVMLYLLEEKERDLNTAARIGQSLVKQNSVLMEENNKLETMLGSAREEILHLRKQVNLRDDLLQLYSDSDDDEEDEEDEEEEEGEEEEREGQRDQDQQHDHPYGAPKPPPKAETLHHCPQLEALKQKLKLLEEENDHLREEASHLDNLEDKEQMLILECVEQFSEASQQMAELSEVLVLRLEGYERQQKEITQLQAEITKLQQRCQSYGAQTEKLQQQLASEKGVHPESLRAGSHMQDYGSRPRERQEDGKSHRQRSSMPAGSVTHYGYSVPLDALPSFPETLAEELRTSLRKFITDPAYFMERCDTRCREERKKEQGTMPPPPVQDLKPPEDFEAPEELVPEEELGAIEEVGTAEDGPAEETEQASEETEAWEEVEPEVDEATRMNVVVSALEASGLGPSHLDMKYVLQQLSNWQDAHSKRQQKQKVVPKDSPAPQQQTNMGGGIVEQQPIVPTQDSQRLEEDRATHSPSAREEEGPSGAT
Assay: co-IP; lysates of neuro-2a cells co-transfected with Bcr-myc and GFP, GFP-Hap1A or GFP-Hap1B; anti-GFP antibody on protein A magnetic beads, overnight at 4 C, 50 mM PIPES pH 6.8, 1 mM EGTA, 1 mM MgSO4; washed with 0.1% NP-40; immunoblot with anti-Bcr and anti-GFP

- binding: binds
B1: myc-tagged mouse Bcr (pCMV6-mBcr-myc, OriGene) (protein, UniProt Q6PAJ1 1-1270)
chain: MVDSVGFAEAWRAQFPDSEPPRMELRSVGDIEQELERCKASIRRLEQEVNQERFRMIYLQTLLAKEKKSYDRQRWGFRRAAQPPDGAAEPRASAPRPPPAPADGADPAPVEESEARPDGEGSPSKGRSASARRPAAAASADRDDRGPPTSVAALRSNFEKIRKGPAQPGSADAEKPFYVNVEFHHERGLVKVNDKEVSDRISSLGSQAMQMERKKSQQSAGQGLGEAPRPHYRGRSSESSCGLDGDYEDAELNPRFLKDNLINANGGNRPPWPPLEYQPYQSIYVGGMMVEGEGKSPLLRSQSTSEQEKRLTWPRRSYSPRSFEDSGGGYTPDCSSNENLTSSEEDFSSGQSSRVSPSPTTYRMFRDKSRSPSQNSQQSFDSSSPPTPQCQKRHRQCQVVVSEATIVGVRKTGQIWPSDGDSTFQGEADSSFGTPPGYGCAADQAEEQRRHQDGLPYIDDSPSSSPHLSSKGRGSLASGALDPTKVSELDLEKGLEMRKWVLSGILASEETYLSHLEALLLPMKPLKAAATTSQPVLTSQQIETIFFKVPELYEIHKEFYDGLFPRVQQWSHQQRVGDLFQKLASQLGVYRAFVDNYGVAMETAEKCCQANAQFAEISENLRARSNKDVKDSTTKNSLETLLYKPVDRVTRSTLVLHDLLKHTPSSHPDHSLLQDALRISQNFLSSINEEITPRRQSMTVKKGEHRQLLKDSFMVELVEGARKLRHIFLFTDLLLCTKLKKQSGGKTQQYDCKWYIPLTDLSFQMVDELEALPNIPLVPDEELDALKIKISQIKSDIQREKRANKGSKVMERLRKKLSEQESLLLLMSPSMAFRVHSRNGKSYTFLISSDYERAEWRESIREQQKKCFKSFSLTSVELQMLTNSCVKLQTVHHIPLTINKEDDESPGLYGFLHVIVHSATGFKQSSNLYCTLEVDSFGYFVNKAKTRVYRDTTEPNWNEEFEIELEGSQTLRILCYEKCYNKMKMTKEDGESADKLMGKGQVQLDPQTLQDRDWQRTVIDMNGIEVKLSVKFTSREFSLKRMPSRKQTGVFGVKIAVVTKRERSKVPYIVRQCVEEIERRGMEEVGIYRVSGVATDIQALKAAFDVNNKDVSVMMSEMDVNAIAGTLKLYFRELPEPLFTDEFYPNFAEGIALSDPVAKESCMLNLLLSLPEANLLTFLFLLDHLKRVAEKETVNKMSLHNLATVFGPTLLRPSEKESKLPANPSQPITMTDSWSLEVMSQVQVLLYFLQLEAIPAPDSKRQSILFSTEV
